Data reported in patent publication US20050148633A1 (priority 2003, published 2005).
pIC50: −log10 of the molar value. Some results were stated once for a whole list of compounds, not compound by compound.

Test system: IL-2 production
Test: Inhibition of IL-2 production in PHA-activated Jurkat cells (ELISA)
Assay type: cell-based, human
Conditions: 20 hours, value bins
Description: Jurkat cells were placed in a 96 well plate (0.5 million cells per well in 1% FBS medium) then test compounds of this invention were added at different concentrations. After 10 minutes, the cells were activated with PHA (final concentration 2.5 μg/mL) and incubated for 20 hours at 37° C. under CO2. The final volume was 200 μL. Following incubation, the cells were centrifuged and the supernatants collected and stored at −70° C. prior to assaying for IL-2 production. A commercial ELISA kit (IL-2 Eli-pair, Diaclone Research, Besancon, France) was used to detect production of IL-2, from which dose response curves were obtained. The IC50 value was calculated as the concentration at which 50% of maximum IL-2 production after stimulation was inhibited versus a non-stimulation control.

**Q.** How did the pIC50 turn out when “3-methyl-pyridine-4-carboxylic acid {2′-(N-dimethylamino)-5′-carbethoxybiphenyl-4-yl}-amide [Compound 81]” was run?
**A.** Its pIC50 is > 7.00.
